Test results taken from paper PMC5966253.
Like-named read-outs stand apart in the source and are kept apart here. Results are given in words; binding and its absence hold for the method and conditions named. In cells and extracts the contact can be indirect. Some results given as binding are weak or reduced against the parent protein; the word gives no strength.

Protein sequences, listed by entry. Tags and fused reporters are not part of them.
UniProt P35222: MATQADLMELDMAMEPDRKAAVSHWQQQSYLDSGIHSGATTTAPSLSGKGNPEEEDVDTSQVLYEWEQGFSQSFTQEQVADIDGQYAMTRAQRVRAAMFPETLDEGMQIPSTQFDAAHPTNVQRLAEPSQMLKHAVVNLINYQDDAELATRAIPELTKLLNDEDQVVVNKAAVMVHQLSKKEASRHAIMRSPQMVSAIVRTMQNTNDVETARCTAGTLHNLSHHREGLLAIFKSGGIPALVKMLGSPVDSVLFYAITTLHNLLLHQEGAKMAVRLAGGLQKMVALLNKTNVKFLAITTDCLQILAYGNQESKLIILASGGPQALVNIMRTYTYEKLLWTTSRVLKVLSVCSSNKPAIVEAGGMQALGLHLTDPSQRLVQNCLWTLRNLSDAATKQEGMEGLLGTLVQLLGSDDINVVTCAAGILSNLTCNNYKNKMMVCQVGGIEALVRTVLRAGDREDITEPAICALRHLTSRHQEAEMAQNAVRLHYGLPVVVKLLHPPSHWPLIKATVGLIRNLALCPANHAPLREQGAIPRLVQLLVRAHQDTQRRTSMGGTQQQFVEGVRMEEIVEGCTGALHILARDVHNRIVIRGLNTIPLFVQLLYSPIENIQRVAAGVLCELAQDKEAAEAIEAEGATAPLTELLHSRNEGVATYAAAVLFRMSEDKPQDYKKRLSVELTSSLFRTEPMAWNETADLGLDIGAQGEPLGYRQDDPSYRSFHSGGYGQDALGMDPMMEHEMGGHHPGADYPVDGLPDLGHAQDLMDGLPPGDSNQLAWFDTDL

T1: δ-catenin (endogenous in parental LNCaP cells) (human (endogenous in LNCaP)) (UniProt Q9UQB3)
T1 sequence: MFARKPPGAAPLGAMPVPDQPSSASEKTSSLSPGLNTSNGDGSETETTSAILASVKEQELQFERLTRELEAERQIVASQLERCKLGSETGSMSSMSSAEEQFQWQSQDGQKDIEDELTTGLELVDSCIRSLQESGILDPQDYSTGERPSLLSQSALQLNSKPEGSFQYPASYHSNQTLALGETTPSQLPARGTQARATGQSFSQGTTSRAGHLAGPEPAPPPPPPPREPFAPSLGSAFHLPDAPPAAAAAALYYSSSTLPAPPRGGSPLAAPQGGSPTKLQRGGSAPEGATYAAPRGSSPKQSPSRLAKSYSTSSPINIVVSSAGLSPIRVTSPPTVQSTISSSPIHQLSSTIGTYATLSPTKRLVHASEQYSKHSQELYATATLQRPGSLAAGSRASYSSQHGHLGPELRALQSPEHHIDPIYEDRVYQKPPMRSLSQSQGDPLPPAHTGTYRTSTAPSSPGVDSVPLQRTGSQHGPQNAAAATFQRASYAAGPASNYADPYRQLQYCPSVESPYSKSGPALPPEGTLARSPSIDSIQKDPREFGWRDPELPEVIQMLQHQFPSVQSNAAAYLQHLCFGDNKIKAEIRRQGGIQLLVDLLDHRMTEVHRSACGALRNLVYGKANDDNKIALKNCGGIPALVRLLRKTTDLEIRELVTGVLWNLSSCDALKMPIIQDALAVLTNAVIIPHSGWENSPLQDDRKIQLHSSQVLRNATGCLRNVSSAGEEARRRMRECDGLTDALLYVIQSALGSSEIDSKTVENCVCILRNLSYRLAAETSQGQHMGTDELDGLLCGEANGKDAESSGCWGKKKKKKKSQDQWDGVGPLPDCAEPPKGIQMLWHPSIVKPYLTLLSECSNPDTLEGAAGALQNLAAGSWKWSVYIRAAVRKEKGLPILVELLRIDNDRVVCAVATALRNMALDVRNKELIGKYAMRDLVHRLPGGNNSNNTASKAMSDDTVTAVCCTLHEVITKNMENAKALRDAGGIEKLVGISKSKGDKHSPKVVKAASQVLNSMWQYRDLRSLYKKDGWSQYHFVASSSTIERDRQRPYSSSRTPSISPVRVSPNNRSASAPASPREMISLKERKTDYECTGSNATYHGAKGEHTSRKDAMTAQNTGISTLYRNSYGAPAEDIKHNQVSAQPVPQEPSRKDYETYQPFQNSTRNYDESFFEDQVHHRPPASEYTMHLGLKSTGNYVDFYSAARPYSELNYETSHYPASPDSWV

T2: p120 (human (endogenous in LNCaP)) (UniProt O60716)
T2 sequence: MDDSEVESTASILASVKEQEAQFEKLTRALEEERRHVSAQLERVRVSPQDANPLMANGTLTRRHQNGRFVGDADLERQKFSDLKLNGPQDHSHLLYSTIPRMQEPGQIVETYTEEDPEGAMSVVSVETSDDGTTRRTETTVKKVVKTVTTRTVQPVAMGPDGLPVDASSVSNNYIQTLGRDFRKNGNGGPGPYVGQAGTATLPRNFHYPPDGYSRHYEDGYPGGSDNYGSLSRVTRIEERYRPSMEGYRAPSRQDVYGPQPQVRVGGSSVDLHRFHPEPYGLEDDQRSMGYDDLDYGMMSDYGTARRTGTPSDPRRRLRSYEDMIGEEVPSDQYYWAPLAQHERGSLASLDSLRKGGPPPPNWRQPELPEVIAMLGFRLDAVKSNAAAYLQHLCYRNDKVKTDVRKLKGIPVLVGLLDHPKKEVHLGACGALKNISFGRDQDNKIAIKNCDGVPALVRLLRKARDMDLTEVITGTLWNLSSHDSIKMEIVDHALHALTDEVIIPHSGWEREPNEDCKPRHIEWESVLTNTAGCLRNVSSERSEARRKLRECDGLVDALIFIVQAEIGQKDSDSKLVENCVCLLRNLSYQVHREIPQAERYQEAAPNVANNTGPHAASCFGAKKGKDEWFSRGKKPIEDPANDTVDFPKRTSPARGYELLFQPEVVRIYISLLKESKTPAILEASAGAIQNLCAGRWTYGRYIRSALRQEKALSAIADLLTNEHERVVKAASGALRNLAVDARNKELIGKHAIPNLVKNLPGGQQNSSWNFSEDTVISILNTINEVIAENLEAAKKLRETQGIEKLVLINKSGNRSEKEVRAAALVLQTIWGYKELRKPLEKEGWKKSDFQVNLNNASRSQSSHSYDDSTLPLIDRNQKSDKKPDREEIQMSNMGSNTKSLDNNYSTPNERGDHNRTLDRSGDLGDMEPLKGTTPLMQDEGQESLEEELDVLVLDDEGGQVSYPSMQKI


Assays:
Assay in all cases: co-IP; lysates in NTEN buffer (100 mM NaCl, 20 mM Tris-HCl pH 8.0, 0.5 mM EDTA, 0.5% Nonidet P-40) of parental LNCaP cells (300 μg protein) and of the δ-catenin-overexpressing clone OE1b; incubated 4-16 hours with precipitating antibodies on protein A/G PLUS-agarose beads; IgG as control; SDS-PAGE and Western blot
[1] = target: T1, δ-catenin (endogenous in parental LNCaP cells) (human (endogenous in LNCaP))
[2] = target: T2, p120 (human (endogenous in LNCaP))
[3] = target: T2, p120 (human (endogenous in LNCaP)); remark: listed apart in the source
[4] = target: β-catenin (human (endogenous in LNCaP)) (UniProt P35222)

Row | binding [1] | binding [2] | binding [3] | binding [4] | Molecule
1 | binds | binds |  |  | β-catenin (from UniProt P35222 1-781)
2 |  |  | binds | binds | δ-catenin (endogenous in parental LNCaP cells) (protein, UniProt Q9UQB3 1-1225) MFARKPPGAAPLGAMPVPDQPSSASEKTSSLSPGLNTSNGDGSETETTSAILASVKEQELQFERLTRELEAERQIVASQLERCKLGSETGSMSSMSSAEEQFQWQSQDGQKDIEDELTTGLELVDSCIRSLQESGILDPQDYSTGERPSLLSQSALQLNSKPEGSFQYPASYHSNQTLALGETTPSQLPARGTQARATGQSFSQGTTSRAGHLAGPEPAPPPPPPPREPFAPSLGSAFHLPDAPPAAAAAALYYSSSTLPAPPRGGSPLAAPQGGSPTKLQRGGSAPEGATYAAPRGSSPKQSPSRLAKSYSTSSPINIVVSSAGLSPIRVTSPPTVQSTISSSPIHQLSSTIGTYATLSPTKRLVHASEQYSKHSQELYATATLQRPGSLAAGSRASYSSQHGHLGPELRALQSPEHHIDPIYEDRVYQKPPMRSLSQSQGDPLPPAHTGTYRTSTAPSSPGVDSVPLQRTGSQHGPQNAAAATFQRASYAAGPASNYADPYRQLQYCPSVESPYSKSGPALPPEGTLARSPSIDSIQKDPREFGWRDPELPEVIQMLQHQFPSVQSNAAAYLQHLCFGDNKIKAEIRRQGGIQLLVDLLDHRMTEVHRSACGALRNLVYGKANDDNKIALKNCGGIPALVRLLRKTTDLEIRELVTGVLWNLSSCDALKMPIIQDALAVLTNAVIIPHSGWENSPLQDDRKIQLHSSQVLRNATGCLRNVSSAGEEARRRMRECDGLTDALLYVIQSALGSSEIDSKTVENCVCILRNLSYRLAAETSQGQHMGTDELDGLLCGEANGKDAESSGCWGKKKKKKKSQDQWDGVGPLPDCAEPPKGIQMLWHPSIVKPYLTLLSECSNPDTLEGAAGALQNLAAGSWKWSVYIRAAVRKEKGLPILVELLRIDNDRVVCAVATALRNMALDVRNKELIGKYAMRDLVHRLPGGNNSNNTASKAMSDDTVTAVCCTLHEVITKNMENAKALRDAGGIEKLVGISKSKGDKHSPKVVKAASQVLNSMWQYRDLRSLYKKDGWSQYHFVASSSTIERDRQRPYSSSRTPSISPVRVSPNNRSASAPASPREMISLKERKTDYECTGSNATYHGAKGEHTSRKDAMTAQNTGISTLYRNSYGAPAEDIKHNQVSAQPVPQEPSRKDYETYQPFQNSTRNYDESFFEDQVHHRPPASEYTMHLGLKSTGNYVDFYSAARPYSELNYETSHYPASPDSWV
